Results taken from PubChem BioAssay AID504444 (National Center for Advancing Translational Sciences (NCATS), 2011).
Where “and” joins values, the source holds several entries; their conditions need not be identical. Identical values can stand only once. The campaign covered roughly 360,000 compounds. About 7,500 (2.1%) were called active. The inconclusive results got no clear call from the source; some entries with a clear call stand among them for comparison. Calls follow the shape of the dose curve; as a rule, active = well fitted inhibition curve with a large enough effect; inconclusive = small, poorly fitted or top-dose-only effect, or effect the other way; inactive = flat fitted curve, though single readings scatter. Where the call is inconclusive, the potency comes from a doubtful curve fit.

Assay: Nrf2 qHTS screen for inhibitors; also: nearly all actives have a fitted effect of over 60% in size
Conditions: A549 ARE-Fluc reporter, luciferase luminescence, 18-24 h; activity change, negative = inhibition: at 46 µM (top of the series)
How it was run: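 Reporter: ARE-Fluc in A549. Exposure: 18-24 h, 37 °C, 5% CO2, 5% FBS OPTI-MEM. Readouts: fluorescent cytotoxicity (CellTiter-Fluor), then luminescent Nrf2 signal after BugLite.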
% is scaled to controls: 0 for no effect and ±100 for the full control effect; potency is read from the fitted curve at half-maximal effect.

| SMILES | activity change, negative = inhibition | Potency |
| --- | --- | --- |
| CCN1CCN(C(=O)CS(=O)(=O)Cc2nc(-c3ccccc3C)oc2C)CC1 | inactive: -6.56% |  |
| CC(C)(C)c1cc(-c2csc(Nc3ccccc3)[n+]2Cc2ccc(C(=O)O)cc2)cc(C(C)(C)C)c1O |  | inconclusive: 18.4 µM [falling, single point] |
| Cc1ccc2c(c1)cc(CN(C(=O)N1CCOCC1)C1CCCC1)c1nnnn12 |  | inconclusive: 29.1 µM [activator, single point] |
| CCOc1ccc(Nc2oc(-c3cccs3)nc2C#N)cc1 |  | active: 16.4 µM |
| COc1cc(C(=O)N/N=C/c2ccc(OC(=O)c3ccccc3Cl)c(OC)c2)ccc1O |  | active: 1.46 µM |
| COc1ccc(/C(O)=C2/C(=O)C(=O)N(c3ccccn3)C2c2ccc(C(C)C)cc2)cc1 (stereo unspecified) |  | inconclusive: 32.6 µM [falling, single point] |
| O=C(c1cc(COc2cccc(C(F)(F)F)c2)on1)N1C[C@H]2CC[C@H]1C2 |  | inconclusive: 5.17 µM [activator, single point] |
| CCOc1ccc(C(=O)c2cn(CC(=O)Nc3ccc(F)c(F)c3)c3cc4c(cc3c2=O)OCCO4)cc1 |  | inconclusive: 29.1 µM [falling, single point] |
| Cc1cc(C)nc(N2CCCC(C(=O)Nc3ccc(F)cc3)C2)n1 (stereo unspecified) |  | inconclusive: 23.1 µM [activator, single point] |
| CCOc1ccccc1C(=O)Nc1ccc2nc3c(c(Nc4ccc(OC)c(OC)c4)c2c1)CCCC3 |  | inconclusive: 4.11 µM [falling, partial curve] |
| COc1ccccc1NC(=S)N(Cc1ccccc1)Cc1ccccn1 |  | inconclusive: 29.1 µM [falling, single point] |
| COc1ccc(NC(=O)C2=Cc3ccccc3OC2)cc1 |  | inconclusive: 1.64 µM [activator, full curve] |
| Cc1ccc(Cc2cnc(N)s2)o1 |  | inconclusive: 29.1 µM [activator, single point] |
| O=C(O)C1CCCCC1C(=O)NCCc1cccc(Cl)c1 (stereo unspecified) |  | inconclusive: 0.164 µM [activator, full curve, poor fit] |
| Cc1cc(Nc2cccc(Cl)c2)nc2ccc(NC(=O)c3cccc(N(C)C)c3)cc12 | inactive: 0.87% |  |
| Cc1cc(O)c2c(C)c(CC(=O)N3CCCCC3)c(=O)oc2c1 |  | inconclusive: 4.11 µM [activator, full curve, poor fit] |
| COc1ccc(-c2noc(-c3nnn(-c4ccc(C(C)C)cc4)c3C)n2)cc1OC |  | inconclusive: 14.6 µM [falling, partial curve, poor fit] |
| O=C(C1CC1)N(Cc1nc2ccccc2c(=O)[nH]1)Cc1cccs1 |  | inconclusive: 10.3 µM [falling, partial curve, poor fit] |
| COc1cc(C(=O)NC(=S)Nc2ccc(Cc3ccncc3)cc2)cc(OC)c1OC |  | inconclusive: 29.1 µM [falling, single point] |
| Cc1ccc(C)c(NC(=O)c2cc(-c3ccccc3)nn2-c2ccccc2)c1 |  | inconclusive: 8.2 µM [falling, partial curve, poor fit] |
| COc1ccccc1C(=O)Nc1onc2c1CCCC2 |  | inconclusive: 0.366 µM [activator, full curve] |

| SMILES | activity change, negative = inhibition | Potency |
| --- | --- | --- |
| CCOC(=O)c1ccc(NC(=O)CN2Cc3ccccc3C2=O)cc1 |  | inconclusive: 20.6 µM [activator, single point] |
| CCOCCCn1c(-c2ccc(Cl)cc2)n[nH]c1=S | inactive: -16.1% |  |
| COc1cccc(-c2ncc3ccccc3c2COC(=O)c2ccc(C(F)(F)F)cc2)c1 |  | inconclusive: 20.6 µM [falling, single point] |
| Cc1cccc(OC(=O)c2cc(-c3ccc4c(c3)OCCO4)on2)c1C |  | inconclusive: 29.1 µM [falling, single point] |
| O=c1[nH]c(-c2cccnc2)nc2sc(-c3ccccc3)cc12 |  | inconclusive: 4.61 µM [activator, partial curve] |
| NC(=O)C1CCN(CC(=O)Nc2cccc(C(=O)Nc3cccc(C(F)(F)F)c3)c2)CC1 |  | inconclusive: 32.6 µM [falling, partial curve, poor fit] |
| COc1ccc(NC(=O)CN(c2cccc(F)c2)S(C)(=O)=O)cc1OC | inactive: 1.49% |  |
| Cc1ccc(S(=O)(=O)Nc2cccc3cccnc23)c([N+](=O)[O-])c1 |  | active: 9.2 µM and active: 10.3 µM |
| O=C(CCc1nnc(-c2ccsc2)o1)N1CCc2c(Cl)cccc2C1 |  | inconclusive: 16.4 µM [activator, partial curve] |
| O=C1Nc2ccccc2N(O)N1c1ccc(Cl)c(Cl)c1 |  | inconclusive: 8.2 µM [activator, partial curve] |
| CN1CCN(c2ccc(S(=O)(=O)N3CCCCC3)cc2NC(=O)/C=C/c2ccc(Cl)c([N+](=O)[O-])c2)CC1 |  | inconclusive: 2.31 µM [activator, partial curve, poor fit] |
| CC(C)n1nccc1N(Cc1ccc(Br)cc1)S(=O)(=O)c1ccccc1 |  | inconclusive: 20.6 µM [falling, single point] |
| Cc1cc(NC(=O)c2ccc(Cl)cc2Cl)no1 |  | inconclusive: 0.517 µM [activator, full curve, poor fit] |
| Cc1ccc(NS(=O)(=O)c2ccc(/C=C/C(=O)O)cc2)cc1Cl | inactive: -6.96% |  |
| COc1ccc(-c2noc(CSc3nc(N)cc(=O)[nH]3)n2)cc1 |  | inconclusive: 25.9 µM [falling, partial curve, poor fit] |
| COc1ccc(N2CCN(c3nccs3)CC2)cc1 |  | inconclusive: 29.1 µM [activator, single point] |
| CC/C(=C/c1sc2ccccc2[n+]1CC)SC | inactive: 11.5% |  |
| N#Cc1ccc(NC(=O)N2CCC(c3nc4c(nnn4Cc4cccc(Cl)c4)c(=O)[nH]3)CC2)cc1 |  | inconclusive: 32.6 µM [falling, partial curve, poor fit] |
| O=C(NCC1COc2ccccc2O1)c1cccc(S(=O)(=O)N2CCN(c3ccccc3)CC2)c1 (stereo unspecified) |  | inconclusive: 18.4 µM [falling, single point] |
| CN(Cc1ccccc1)S(=O)(=O)c1ccc2c(c1)n(C)c(=O)c(=O)n2C |  | inconclusive: 5.8 µM [activator, full curve, poor fit] |
